Data taken from PubChem BioAssay AID624291 (National Center for Advancing Translational Sciences (NCATS), 2012).
Among all 350,000 compounds or so, about 220 (0.063%) were called active. The inconclusive results got no clear call from the source; some entries with a clear call stand among them for comparison. Calls come from the whole dose curve; as a rule, active = well fitted activation curve with a large enough effect; inconclusive = small, poorly fitted or top-dose-only effect; inactive = no such curve, though single readings can be large or run the other way. Where the call is inconclusive, the potency comes from a doubtful curve fit.

assay: qHTS for Activators of Integrin-Mediated Alleviation for Muscular Dystrophy; details: alpha7betagal myoblasts, beta-gal FDG fluorescence, 48 h; activation: at 38.3 µM (top of the series); note: nearly all actives have a fitted effect of over 60% in size;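 for activation: 100% = response of the positive control SU9516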
Procedure, shortened: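 Alpha7betagal+/- myoblasts (passage 13) were plated 16-24 hr, then exposed to compounds (1:260 dilution of DMSO stock) for 48 hours at 37C. After MPER lysis, β-galactosidase reporter activity was read as FDG fluorescence (ex 480/em 540) after 30 minutes.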
Potency is the fitted concentration of half-maximal effect.

Potency, inconclusive:
Cc1ccccc1OCC(=O)NC(=S)Nc1cccc2cc(O)ccc12 28.2 µM [activator, single point]
Cc1nn(CCCC(=O)NCc2ccccc2)c(=O)c2nn(-c3ccccc3)c(C)c12 2.82 µM [activator, single point]
CCCCn1c2nc3ccccc3nc2c2c(=O)n(-c3ccccc3)cnc21 2.24 µM [activator, full curve, poor fit]
CC(C)c1ccc(-c2csc3ncnc(N4CCN(C)CC4)c23)cc1 11.2 µM [activator, partial curve, poor fit]
Cc1ccc(NC(=O)C2CCCN2C(=O)OCc2ccccc2)cc1C (stereo not drawn) 3.16 µM [activator, single point]
Cc1cc(-c2ccn[nH]2)c(C)s1 5.62 µM [activator, full curve, poor fit]
Cc1noc(C)c1C(=O)Nc1cccnc1 20 µM [activator, single point]
O=C(C1CCCO1)N1CCN(C(=S)Nc2ccccc2Cl)CC1 (stereo not drawn) 5.01 µM [activator, single point]
O=C(C1=COCCO1)N1CCN(S(=O)(=O)c2cccc(F)c2)CC1 4.47 µM [activator, single point]
Brc1cc2c(cc1C1OCCCO1)OCO2 12.6 µM [activator, single point]
O/N=C1/CCCSc2ccccc21 3.16 µM [activator, single point]
O=C(C=CC(=O)OC1CCCCC1)OC1CCCCC1 3.16 µM [activator, single point]
Cc1cc[n+](-c2[nH]c(=O)sc2/C=N/N=C(\[O-])c2ccncc2)cc1 3.55 µM [activator, single point]
COCc1ccc(C(=O)NC2CCSc3ccccc32)cc1 (stereo not drawn) 10 µM [activator, partial curve]
Cc1ccccc1-n1c(C)n[nH]c1=S 20 µM [activator, single point]
COc1ccc(C(=O)NNC2=NCCCCC2)cc1 10 µM [activator, partial curve, poor fit]
CCOC(=O)N1CCN(C(=O)c2oc3ccc(S(=O)(=O)N4CCCCCC4)cc3c2C)CC1 2.51 µM [activator, full curve, poor fit]
COc1cccc(NC2=CC(=O)CC(C)(C)C2)c1 14.1 µM [activator, partial curve, poor fit]
O=S(=O)(Nc1nnc(C2CC2)s1)c1ccccc1 2.51 µM [activator, partial curve]
CSC1=C(C#N)C(c2sccc2C)CC(=O)N1 (stereo not drawn) 3.55 µM [activator, single point]
CCCCN(C(=O)NC(=O)Nc1ccccc1OC)S(C)(=O)=O 2 µM [activator, single point]
C=CCNC(=O)/C(C#N)=C/c1ccc(SC)cc1 3.55 µM [activator, single point]
CCn1c(=O)c2cc(C(=O)NCCC(C)C)sc2c2ccccc21 5.01 µM [activator, single point]
O=c1[nH]c2cc([N+](=O)[O-])c([N+](=O)[O-])cc2[nH]c1=O 0.316 µM [activator, partial curve, poor fit]
O=C1C2C3C=CC(C3)C2C(=O)N1CN(Cc1ccccc1)CN1C(=O)C2C3C=CC(C3)C2C1=O (stereo not drawn) 2.24 µM [activator, partial curve, poor fit]
COc1ccc(Cl)c2c1[nH]c1nc(SCc3ccccn3)nnc12 0.501 µM [activator, full curve, poor fit]
COC(=O)c1cc(=O)n(-c2ccc(C(F)(F)F)cc2)[nH]1 2.51 µM [activator, partial curve, poor fit]
CCCc1ccccc1OCCNS(=O)(=O)c1cc2c(cc1C)OCC(=O)N2 2 µM [activator, partial curve, poor fit]
COc1ccc(CN2CCC(CNS(=O)(=O)c3cccc(C(F)(F)F)c3)CC2)cc1 11.2 µM [activator, single point]
CC1=C(C(=O)OCc2ccc3c(c2)OCO3)C(c2ccc(O)c([N+](=O)[O-])c2)NC(=O)N1 (stereo not drawn) 22.4 µM [activator, single point]
CC(Cc1ccccc1)NC(=O)CCCN1C(=O)c2ccccc2C1=O (stereo not drawn) 5.01 µM [activator, single point]
O=C(Nc1ccnn1C1CCN(C(=O)c2c(F)cccc2F)CC1)C1CC1 5.62 µM [activator, single point]
CCOC(=O)CNc1c(-c2ccccc2)nc2ccc(Cl)cn12 14.1 µM [activator, partial curve, poor fit]
CCOCCCNC(=O)c1ccc(CS(=O)(=O)Cc2ccc(C)cc2)o1 28.2 µM [activator, single point]
CC1c2ccsc2CCN1S(=O)(=O)c1cccs1 (stereo not drawn) 28.2 µM [activator, single point]
CCOC(=O)C1CCCN(c2c(NCCc3cccc(C)c3)c(=O)c2=O)C1 (stereo not drawn) 3.98 µM [activator, partial curve, poor fit]
Cc1cc(C)cc(OCc2nnc(SCC(=O)OC(C)C)o2)c1 28.2 µM [activator, single point]
COc1ccc(-c2coc3c(C)c4oc(=O)c(CCC(=O)O)c(C)c4cc23)cc1 14.1 µM [activator, partial curve, poor fit]
Cc1cc2[nH]c3c4ccccc4nc(C)c3c2cc1C 28.2 µM [activator, single point]
Cc1cc(C(=O)NN)c(C)o1 1.12 µM [activator, full curve, poor fit]
Cn1c(=O)c2[nH]c(NN=Cc3cccc(Br)c3)nc2n(C)c1=O 1 µM [activator, full curve, poor fit]
Cc1ccc(NS(=O)(=O)c2ccc(-n3cccn3)cc2)cc1F 3.16 µM [activator, single point]
Cc1cc(C)cc(NC(=O)CCN2CC(C)OC(C)C2)c1 (stereo not drawn) 5.01 µM [activator, single point]
Cc1ccc2nc(N/C(N)=N/S(=O)(=O)c3ccc([N+](=O)[O-])cc3)nc(C)c2c1 0.501 µM [activator, full curve, poor fit]
Cc1ccc(C(=O)NC2CCN(C(=O)Nc3ccccc3Cl)CC2)cc1 28.2 µM [activator, single point]
Cc1ccc(NC(=O)CN2C(=O)S/C(=C\c3cc(Cl)c(OCC(=O)O)c(Cl)c3)C2=O)cc1 3.16 µM [activator, single point]
CCNC(=S)N1CCc2cc(OC)c(OC)cc2C1COc1ccc(OC)cc1 (stereo not drawn) 28.2 µM [activator, single point]
O=C1CC(N2CCN(c3ccc(O)cc3)CC2)C(=O)N1c1ccc2c(c1)OCO2 (stereo not drawn) 5.01 µM [activator, full curve, poor fit]

Entries listed so far that have an aryl methoxy group, in the order listed:
Potency, inconclusive:
COc1ccc(C(=O)NNC2=NCCCCC2)cc1 10 µM [activator, partial curve, poor fit]
COc1cccc(NC2=CC(=O)CC(C)(C)C2)c1 14.1 µM [activator, partial curve, poor fit]
CCCCN(C(=O)NC(=O)Nc1ccccc1OC)S(C)(=O)=O 2 µM [activator, single point]
COc1ccc(Cl)c2c1[nH]c1nc(SCc3ccccn3)nnc12 0.501 µM [activator, full curve, poor fit]
COc1ccc(CN2CCC(CNS(=O)(=O)c3cccc(C(F)(F)F)c3)CC2)cc1 11.2 µM [activator, single point]
COc1ccc(-c2coc3c(C)c4oc(=O)c(CCC(=O)O)c(C)c4cc23)cc1 14.1 µM [activator, partial curve, poor fit]
CCNC(=S)N1CCc2cc(OC)c(OC)cc2C1COc1ccc(OC)cc1 (stereo not drawn) 28.2 µM [activator, single point]

Ordered by length of the SMILES (ascending): part of the list above
Potency, inconclusive:
Cc1cc(-c2ccn[nH]2)c(C)s1 5.62 µM [activator, full curve, poor fit]
Cc1noc(C)c1C(=O)Nc1cccnc1 20 µM [activator, single point]
O=c1[nH]c2cc([N+](=O)[O-])c([N+](=O)[O-])cc2[nH]c1=O 0.316 µM [activator, partial curve, poor fit]

Next part.

Potency, inactive:
CCCCNC(=O)Oc1cccc(N2CCCC2=O)c1
COc1ccc(CCCc2n[nH]c(=S)o2)c(C)c1
CSc1nsc(NC(=O)OCc2ccc(Cl)cc2)n1
O=c1[nH]cnc2sc3c(c12)CN(Cc1ccccc1)CC3
Cc1ccc(SC[C@H](Cc2ccccc2)N2CCN(CCc3ccccc3)CCC2=O)cc1
COCCNC(=O)CCc1nc2cccnc2n1Cc1ccc(OC)cc1
CCCOc1cccc(-c2cc(C(=O)NNC(=S)NCC)c3ccccc3n2)c1
Cc1ccc(NC2CCCN(C(=O)c3cnc4ccccn4c3=O)C2)cc1C (stereo not drawn)
COc1ccc(OC)c(-c2cc(C(=O)Nc3cc(C)n(Cc4ccc(Cl)cc4)n3)no2)c1
COCC1CCCCN1C(=O)c1ccc(OC)c(OC2CCN(C(C)C)CC2)c1 (stereo not drawn)
Cc1ccc(S(=O)(=O)c2c(N)n(Cc3ccco3)c3nc4ccccc4nc23)cc1
Cc1ccc(NC(=S)NC(NC(=O)c2ccccc2)C(Cl)(Cl)Cl)c(C)c1 (stereo not drawn)
Cc1[nH]n(-c2ccccc2)c(=O)c1C=Nc1cnc2ccccc2c1
CCOc1ccc(CNCCCSc2ncccn2)cc1
CN1c2ccccc2C(C)(C)C12CC(CCl)=NO2 (stereo not drawn)
Cc1occc1-c1nnc(-c2cc([N+](=O)[O-])cc([N+](=O)[O-])c2)o1
Cc1nccn1-c1c([N+](=O)[O-])c(=O)n(C)c2ccccc12
C[C@@H]1ON(C)[C@H]2C[C@H]3c4[nH]c5ccc(-c6ccc7c(c6)OCO7)cc5c4CCN3C[C@@H]12

activation, inconclusive:
Cc1ccc(NC(=O)/C=C/c2ccc(S(=O)(=O)N3CCOCC3)cc2)cc1S(=O)(=O)N(C)C -71.3% [activator]

activation, inactive:
Cc1nn(Cc2ccccc2)c(C)c1C(=O)OCC(=O)c1cc(C)n(C2CC2)c1C 5.17% [at 7.66 µM]
